Patent publication US20130178436A1, “COMPOSITION FOR PREVENTING, IMPROVING, OR TREATING RENAL DISEASE INCLUDING MAILLARD BROWNING REACTION PRODUCTS OF PANAX SPECIES PLANT EXTRACT” (Korea Institute of Science and Technology, priority 2012, published 2013)
At least one compound was matched to its structure with a doubt left.

Tested on: LLC-PK1 cells
Test: Protective activity for renal cells against AAPH-induced oxidative damage (MTT viability)
Type: cell-based
Conditions: sample 1 μg/ml, 10 mM AAPH, 24 hours
Text: Renal cells, i.e., LLC-PK1 cell lines, are vulnerable to oxidative damage, and AAPH, which is a radical releasing agent, combines with oxygen molecules at a very rapid speed to produce a peroxyl radical and trigger lipid peroxidation, resulting in cytotoxicity (Miki et al., Arch. Biochem. Biophy., 258(2), 373-380, 1987). Thus, a protective activity for renal cells may be evaluated using such an oxidative damage of the LLC-PK1 cell lines using AAPH.
A protective effect for nephrotoxicity was evaluated using renal cells (LLC-PK1) with reference to a method reported in the publication (Yokozawa et al., Food Chem., 48, pp5068-5073, 2000) as follows.
First, the LLC-PK1 cells were cultured in an incubator with conditions of 37° C., 95% air, and 5% CO2 by using a DMEM/F12 medium (Gibco BRL Life Technologies, Grand Island, NY, USA) supplemented with 5% fetal bovine serum (Gibco BRL Life Technologies), 50 units/ml of penicillin G, and 50 μg/ml of streptomycin (Gibco BRL Life Technologies). The incubated LLC-PK1 cells were introduced into a 96-well incubation plate at a concentration of 10^4 […] and then stabilized for 2 hours. […] Then, absorbance of the sample was measured using a detection wavelength of 540 nm in a SPECTRAmax 340PC (Molecular Devices, Sunnyvale, Calif., USA) microplate reader and a viability of the LLC-PK1 cells was measured using the absorbance thereof.

Q: `CC(C)=CCC[C@](C)(O[C@@H]1O[C@H](CO)[C@@H](O)[C@H](O)[C@H]1O)[C@H]1CC[C@]2(C)[C@@H]1[C@H](O)C[C@@H]1[C@@]3(C)CC[C@H](O)C(C)(C)[C@@H]3[C@@H](O[C@@H]3O[C@H](CO)[C@@H](O)[C@H](O)[C@H]3O[C@@H]3O[C@@H](C)[C@H](O)[C@@H](O)[C@H]3O)C[C@]12C` [ginsenoside Re] was tested. Which Cell viability did it give?
A: The Cell viability was 74.5 ± .8.8%.
